Binding data for six substances are collected here from doi:10.1101/728410.

The chains behind the UniProt entries cited, without tags or fusion partners. Where a name states a change or a piece, a line headed by the entry shows the natural chain unless it says otherwise. A line that says so, or that is headed by a name, gives the form on record, which may keep a tag or linker.
shank2 (Q9QX74, form named): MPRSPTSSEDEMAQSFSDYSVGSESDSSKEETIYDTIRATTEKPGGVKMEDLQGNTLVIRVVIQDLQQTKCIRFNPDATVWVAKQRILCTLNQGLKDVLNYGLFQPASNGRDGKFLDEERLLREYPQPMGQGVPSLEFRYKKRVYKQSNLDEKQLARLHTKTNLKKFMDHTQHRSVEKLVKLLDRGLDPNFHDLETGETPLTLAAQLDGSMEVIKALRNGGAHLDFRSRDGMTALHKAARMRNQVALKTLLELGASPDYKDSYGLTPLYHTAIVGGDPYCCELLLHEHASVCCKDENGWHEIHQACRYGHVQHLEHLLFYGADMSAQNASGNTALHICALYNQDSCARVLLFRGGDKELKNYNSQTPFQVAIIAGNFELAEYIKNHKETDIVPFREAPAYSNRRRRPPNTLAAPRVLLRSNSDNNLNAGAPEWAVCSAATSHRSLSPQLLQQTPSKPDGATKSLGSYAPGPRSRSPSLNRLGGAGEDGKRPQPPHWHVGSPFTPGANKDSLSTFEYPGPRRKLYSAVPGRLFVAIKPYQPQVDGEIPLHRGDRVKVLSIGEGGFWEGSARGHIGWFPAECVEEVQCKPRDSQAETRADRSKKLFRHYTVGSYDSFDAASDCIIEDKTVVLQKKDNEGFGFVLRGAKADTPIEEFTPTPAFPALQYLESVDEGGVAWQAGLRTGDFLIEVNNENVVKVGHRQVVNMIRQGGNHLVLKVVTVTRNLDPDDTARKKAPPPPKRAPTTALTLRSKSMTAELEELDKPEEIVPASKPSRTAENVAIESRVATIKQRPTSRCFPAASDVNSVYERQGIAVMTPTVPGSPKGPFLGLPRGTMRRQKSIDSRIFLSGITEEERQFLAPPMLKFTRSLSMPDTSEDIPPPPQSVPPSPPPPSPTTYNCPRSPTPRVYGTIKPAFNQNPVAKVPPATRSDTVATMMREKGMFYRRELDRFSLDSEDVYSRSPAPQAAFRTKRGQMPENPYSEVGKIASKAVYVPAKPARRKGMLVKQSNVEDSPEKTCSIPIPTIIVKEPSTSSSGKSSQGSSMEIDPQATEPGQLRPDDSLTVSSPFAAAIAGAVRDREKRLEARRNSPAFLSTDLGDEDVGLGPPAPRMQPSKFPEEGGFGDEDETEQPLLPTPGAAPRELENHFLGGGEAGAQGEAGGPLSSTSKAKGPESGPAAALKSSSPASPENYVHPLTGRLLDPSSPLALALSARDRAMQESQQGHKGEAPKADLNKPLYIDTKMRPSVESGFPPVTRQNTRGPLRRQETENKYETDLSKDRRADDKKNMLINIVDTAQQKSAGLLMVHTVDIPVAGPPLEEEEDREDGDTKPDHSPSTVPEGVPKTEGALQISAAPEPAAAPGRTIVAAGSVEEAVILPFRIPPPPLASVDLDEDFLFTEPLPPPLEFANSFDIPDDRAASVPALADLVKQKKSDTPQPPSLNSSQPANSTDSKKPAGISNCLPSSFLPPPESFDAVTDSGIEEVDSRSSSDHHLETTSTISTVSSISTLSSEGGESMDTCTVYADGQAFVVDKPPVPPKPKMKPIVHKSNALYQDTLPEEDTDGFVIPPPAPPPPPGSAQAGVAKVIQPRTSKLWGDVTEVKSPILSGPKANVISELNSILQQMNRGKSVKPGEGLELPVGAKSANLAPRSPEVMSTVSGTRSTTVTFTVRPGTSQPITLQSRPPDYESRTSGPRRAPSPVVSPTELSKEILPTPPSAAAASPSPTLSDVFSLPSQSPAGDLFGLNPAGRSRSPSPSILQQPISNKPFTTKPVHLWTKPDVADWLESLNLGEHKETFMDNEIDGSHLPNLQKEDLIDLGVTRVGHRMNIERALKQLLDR
UniProt Q15075: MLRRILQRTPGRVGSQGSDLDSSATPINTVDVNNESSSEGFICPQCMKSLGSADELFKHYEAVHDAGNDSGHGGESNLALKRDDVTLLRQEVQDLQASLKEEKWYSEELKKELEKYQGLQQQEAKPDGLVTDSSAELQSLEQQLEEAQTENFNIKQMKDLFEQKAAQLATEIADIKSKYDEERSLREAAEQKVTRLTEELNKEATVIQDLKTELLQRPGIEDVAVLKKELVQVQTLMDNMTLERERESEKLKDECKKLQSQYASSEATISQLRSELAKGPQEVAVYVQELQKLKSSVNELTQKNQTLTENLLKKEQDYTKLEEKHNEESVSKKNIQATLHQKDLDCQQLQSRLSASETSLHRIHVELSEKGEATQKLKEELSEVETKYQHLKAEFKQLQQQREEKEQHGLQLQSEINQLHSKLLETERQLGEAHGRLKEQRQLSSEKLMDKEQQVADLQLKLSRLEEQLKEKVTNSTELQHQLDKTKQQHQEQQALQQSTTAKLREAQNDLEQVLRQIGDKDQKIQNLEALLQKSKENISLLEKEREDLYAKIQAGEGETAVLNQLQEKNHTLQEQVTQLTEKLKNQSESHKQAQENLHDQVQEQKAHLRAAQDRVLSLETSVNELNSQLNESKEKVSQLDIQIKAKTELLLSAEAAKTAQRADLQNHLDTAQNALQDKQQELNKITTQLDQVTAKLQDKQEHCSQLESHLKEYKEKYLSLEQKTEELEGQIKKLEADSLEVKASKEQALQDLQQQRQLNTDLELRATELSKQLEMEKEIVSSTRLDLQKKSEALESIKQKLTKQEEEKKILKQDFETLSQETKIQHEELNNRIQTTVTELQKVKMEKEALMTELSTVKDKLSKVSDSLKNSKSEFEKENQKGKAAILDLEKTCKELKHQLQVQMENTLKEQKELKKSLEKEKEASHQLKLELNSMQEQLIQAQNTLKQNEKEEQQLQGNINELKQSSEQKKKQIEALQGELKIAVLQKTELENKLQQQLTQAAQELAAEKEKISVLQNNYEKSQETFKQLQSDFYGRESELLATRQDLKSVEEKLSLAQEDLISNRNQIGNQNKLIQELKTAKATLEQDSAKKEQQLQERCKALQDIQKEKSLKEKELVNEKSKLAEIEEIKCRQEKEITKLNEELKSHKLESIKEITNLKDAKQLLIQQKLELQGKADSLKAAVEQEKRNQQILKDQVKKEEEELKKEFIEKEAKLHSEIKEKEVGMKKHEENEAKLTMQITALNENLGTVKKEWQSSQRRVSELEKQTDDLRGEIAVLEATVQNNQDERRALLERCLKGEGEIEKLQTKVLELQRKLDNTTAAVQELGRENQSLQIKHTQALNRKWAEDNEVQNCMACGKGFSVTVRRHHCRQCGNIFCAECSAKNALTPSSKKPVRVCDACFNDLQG
UniProt Q13671: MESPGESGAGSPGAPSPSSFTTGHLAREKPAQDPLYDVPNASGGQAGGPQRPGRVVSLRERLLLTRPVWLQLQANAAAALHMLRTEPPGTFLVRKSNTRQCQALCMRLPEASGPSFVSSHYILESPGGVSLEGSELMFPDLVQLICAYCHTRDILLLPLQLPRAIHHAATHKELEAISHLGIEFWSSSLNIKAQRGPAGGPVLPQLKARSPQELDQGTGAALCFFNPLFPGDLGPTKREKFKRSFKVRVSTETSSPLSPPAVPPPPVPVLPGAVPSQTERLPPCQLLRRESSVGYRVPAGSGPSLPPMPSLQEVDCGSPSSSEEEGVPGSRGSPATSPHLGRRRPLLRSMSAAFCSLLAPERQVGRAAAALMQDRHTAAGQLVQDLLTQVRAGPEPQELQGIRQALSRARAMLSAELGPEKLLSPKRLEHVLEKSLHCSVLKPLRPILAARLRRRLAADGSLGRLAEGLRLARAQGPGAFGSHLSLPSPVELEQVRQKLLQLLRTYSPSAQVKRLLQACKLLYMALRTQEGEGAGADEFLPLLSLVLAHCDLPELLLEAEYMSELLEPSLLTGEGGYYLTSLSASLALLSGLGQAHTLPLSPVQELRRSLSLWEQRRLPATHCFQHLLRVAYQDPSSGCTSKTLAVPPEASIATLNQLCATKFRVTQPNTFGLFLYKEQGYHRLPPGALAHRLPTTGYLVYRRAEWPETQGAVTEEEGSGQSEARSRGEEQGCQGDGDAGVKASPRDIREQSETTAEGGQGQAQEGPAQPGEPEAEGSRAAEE
UniProt Q9UJ41: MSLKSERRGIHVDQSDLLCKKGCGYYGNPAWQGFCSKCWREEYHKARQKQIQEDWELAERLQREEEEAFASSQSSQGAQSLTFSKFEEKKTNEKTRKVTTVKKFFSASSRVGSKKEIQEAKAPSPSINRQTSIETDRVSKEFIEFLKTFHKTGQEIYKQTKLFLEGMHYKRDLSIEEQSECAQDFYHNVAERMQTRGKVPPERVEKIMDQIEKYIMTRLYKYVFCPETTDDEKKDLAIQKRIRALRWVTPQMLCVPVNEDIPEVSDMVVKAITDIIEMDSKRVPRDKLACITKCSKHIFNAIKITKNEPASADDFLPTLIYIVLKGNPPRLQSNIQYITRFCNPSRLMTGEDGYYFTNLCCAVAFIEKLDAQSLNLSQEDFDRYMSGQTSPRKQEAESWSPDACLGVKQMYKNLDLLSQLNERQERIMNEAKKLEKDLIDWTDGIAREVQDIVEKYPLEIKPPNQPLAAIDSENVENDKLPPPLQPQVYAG
UniProt Q14247: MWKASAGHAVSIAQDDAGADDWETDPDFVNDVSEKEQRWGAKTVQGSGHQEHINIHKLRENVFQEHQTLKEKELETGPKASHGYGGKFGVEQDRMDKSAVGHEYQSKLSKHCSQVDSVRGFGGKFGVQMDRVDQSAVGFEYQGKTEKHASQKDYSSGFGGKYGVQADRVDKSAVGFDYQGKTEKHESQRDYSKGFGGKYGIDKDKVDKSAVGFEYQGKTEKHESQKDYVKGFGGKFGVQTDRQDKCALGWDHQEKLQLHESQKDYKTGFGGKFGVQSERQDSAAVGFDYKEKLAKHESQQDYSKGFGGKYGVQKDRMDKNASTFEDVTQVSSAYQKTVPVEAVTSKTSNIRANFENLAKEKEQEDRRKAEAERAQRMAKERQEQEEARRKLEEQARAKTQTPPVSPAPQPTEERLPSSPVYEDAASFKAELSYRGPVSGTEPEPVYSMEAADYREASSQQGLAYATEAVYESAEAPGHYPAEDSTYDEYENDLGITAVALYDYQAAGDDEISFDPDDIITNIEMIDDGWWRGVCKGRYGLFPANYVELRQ
UniProt P05556: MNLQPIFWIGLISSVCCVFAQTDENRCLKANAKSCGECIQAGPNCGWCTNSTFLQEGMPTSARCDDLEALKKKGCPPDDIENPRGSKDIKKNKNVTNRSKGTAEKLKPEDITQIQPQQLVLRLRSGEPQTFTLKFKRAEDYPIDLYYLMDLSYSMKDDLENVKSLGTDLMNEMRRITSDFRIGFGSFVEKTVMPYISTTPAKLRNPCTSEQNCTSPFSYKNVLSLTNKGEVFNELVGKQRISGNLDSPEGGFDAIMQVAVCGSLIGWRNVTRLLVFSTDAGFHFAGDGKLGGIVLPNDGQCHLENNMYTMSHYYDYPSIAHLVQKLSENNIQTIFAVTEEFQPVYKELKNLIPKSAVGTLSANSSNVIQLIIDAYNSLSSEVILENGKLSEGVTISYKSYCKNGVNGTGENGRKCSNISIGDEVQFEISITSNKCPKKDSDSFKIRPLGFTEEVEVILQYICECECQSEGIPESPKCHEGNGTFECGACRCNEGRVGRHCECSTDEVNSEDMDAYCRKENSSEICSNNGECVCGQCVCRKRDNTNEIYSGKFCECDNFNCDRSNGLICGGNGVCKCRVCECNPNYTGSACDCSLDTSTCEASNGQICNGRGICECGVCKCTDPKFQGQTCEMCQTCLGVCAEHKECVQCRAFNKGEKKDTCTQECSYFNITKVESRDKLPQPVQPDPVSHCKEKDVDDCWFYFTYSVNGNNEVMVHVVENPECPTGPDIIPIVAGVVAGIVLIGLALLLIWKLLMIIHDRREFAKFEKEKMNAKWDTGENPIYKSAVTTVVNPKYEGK

The target in the assay is shank2 (bait of the mass spectrometric search for shank2-interacting proteins) (UniProt Q9QX74). Kind of assay: affinity purification with mass spectrometry.

Results are given in words; binding and its absence hold for the method and conditions named. In cells and extracts the contact can be indirect. Here binding means that the protein was enriched with, or labelled near, the bait; the list need not be complete.

On to EEA1 (from UniProt Q15075 1-1411), for which the binding result is listed as “binds”. Under “FAK (endogenous) (from UniProt Q05397 1-1052) (enzyme)” stands “binds”. With “RIN1 (endogenous) (from UniProt Q13671 1-783)” the entry was “binds”; with “Rabex5 (endogenous) (from UniProt Q9UJ41 1-491) (enzyme)”, “binds”; with “cortactin (endogenous) (from UniProt Q14247 1-550)”, “binds”.

“β1-integrin (from UniProt P05556 21-798) (receptor)”: the binding result is “binds”.
